# According to patent US20110160266A1, “Novel Anti-Arrhythmia Agent” (THE UAB RESEARCH FOUNDATION, priority 2008, published 2011):
# At least one structure is not confirmed: it was looked up by name or label, or the drawing left a doubt.
# Tested on: isolated rat left atria
# Experiment: Pharmacological activation of spontaneous tachycardic activity (STA): calcium-loading agents with or without 2-APB
# Conditions: agent without 2-APB, at the concentration given
# Method: Male Sprague-Dawley rats (325-400 g) were anesthetized with intra-peritoneal pentobarbital (0.1 g/kg). Their right and left atria were isolated, superfused at 30° C. in Krebs-Henseleit buffer, and nearly isometric forces of contraction were measured from these muscles (Wolkowicz et al., 2002). 2-APB was prepared as a 150 mM dimethyl sulfoxide stock.
# Left atria (n=8 per group) were paced at 3 Hz and (i) titrated with 0 to 30 nM isoproterenol (Ahlquist, 1970) or (ii) exposed to 3 μM forskolin (Laurenza et al., 1980). Left atrial force and frequency of contraction, the time to peak tension and relaxation times were recorded after a 3-5 min exposure to forskolin or to any concentration of isoproterenol. The 3 Hz pacing stimulus was interrupted at the end of these protocols to measure SMA. […]
# Left atrial contraction and relaxation times were recorded at these five times, the pacing stimulus was stopped and rates of SMA were recorded. […] Atrial mechanical function was measured at these four times; the pacing stimulus then was stopped and rates of SMA were recorded. […]
# Atrial mechanical function was recorded at this time; the pacing stimulus then was stopped and rates of SMA were recorded. […]
# Left atria (n=7) were paced at 3 Hz, treated with 120 μM ouabain (Illanes and Marshall, 1964), and any change in mechanical function was recorded at a new steady state, ˜10 min later. […]
compound,measurement,value
C=C[C@@]1(C)CC(=O)[C@]2(O)[C@@]3(C)[C@@H](O)CCC(C)(C)[C@@H]3[C@H](O)[C@H](OC(C)=O)[C@@]2(C)O1 [forskolin],ectopic activity / mechanical stability without 2-APB,does not produce ectopic activity
same,effect on left atrial force of contraction,increases their force of contraction
